Assay results from the supplement of paper PMC12823440, “Inhibitors supercharge kinase turnover through native proteolytic circuits” (Nature, 2025).
The list shows a part of the results. Hit calls seldom repeat between salt and free forms of one compound.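 In K562 cells expressing nanoluciferase-fused kinases, luminescence was recorded at 4 h intervals between 2 and 18 h, normalized as percent of control with DMSO at 100% and a positive control at 0%. A significant (2 sigma) signal drop marks a time point as decreased. The authors' rule for a hit is not shown and takes in more than the number of time points.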

Chains of the proteins cited; added tags and fusions are not shown. Lines headed by an entry give the natural chain unless they say otherwise; changes in a name come on top.
UniProt Q13546: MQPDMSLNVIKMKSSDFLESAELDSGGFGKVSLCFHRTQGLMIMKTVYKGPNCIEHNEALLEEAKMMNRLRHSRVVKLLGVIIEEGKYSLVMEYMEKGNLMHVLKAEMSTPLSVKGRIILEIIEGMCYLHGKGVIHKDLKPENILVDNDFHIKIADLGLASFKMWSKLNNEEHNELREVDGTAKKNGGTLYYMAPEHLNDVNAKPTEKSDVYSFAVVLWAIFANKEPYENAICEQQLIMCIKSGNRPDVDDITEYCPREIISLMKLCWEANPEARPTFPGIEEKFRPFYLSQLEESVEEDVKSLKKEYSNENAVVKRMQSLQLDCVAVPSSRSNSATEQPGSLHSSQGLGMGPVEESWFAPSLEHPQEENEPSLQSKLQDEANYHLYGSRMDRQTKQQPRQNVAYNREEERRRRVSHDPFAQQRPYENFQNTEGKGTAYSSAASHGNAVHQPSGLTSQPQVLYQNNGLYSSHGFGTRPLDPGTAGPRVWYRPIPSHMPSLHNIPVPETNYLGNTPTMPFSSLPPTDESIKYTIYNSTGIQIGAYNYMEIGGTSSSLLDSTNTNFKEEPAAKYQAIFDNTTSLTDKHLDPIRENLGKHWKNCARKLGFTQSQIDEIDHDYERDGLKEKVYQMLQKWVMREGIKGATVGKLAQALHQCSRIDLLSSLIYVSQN
UniProt P07947, whole entry, looked up: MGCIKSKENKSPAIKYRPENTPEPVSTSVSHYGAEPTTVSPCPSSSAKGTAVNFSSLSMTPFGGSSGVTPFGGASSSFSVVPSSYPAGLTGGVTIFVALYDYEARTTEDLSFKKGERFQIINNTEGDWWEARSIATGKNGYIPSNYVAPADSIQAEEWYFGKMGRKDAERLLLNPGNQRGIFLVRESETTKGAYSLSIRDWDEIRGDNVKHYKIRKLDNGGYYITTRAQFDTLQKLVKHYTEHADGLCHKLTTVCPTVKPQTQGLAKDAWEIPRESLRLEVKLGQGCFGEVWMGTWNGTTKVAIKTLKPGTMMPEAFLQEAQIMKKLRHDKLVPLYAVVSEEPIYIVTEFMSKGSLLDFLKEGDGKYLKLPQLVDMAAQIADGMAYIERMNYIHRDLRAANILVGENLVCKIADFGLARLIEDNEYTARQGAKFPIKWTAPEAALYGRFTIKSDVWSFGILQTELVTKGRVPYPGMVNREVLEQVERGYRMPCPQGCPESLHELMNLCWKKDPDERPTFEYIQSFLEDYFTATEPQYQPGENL
UniProt O15530: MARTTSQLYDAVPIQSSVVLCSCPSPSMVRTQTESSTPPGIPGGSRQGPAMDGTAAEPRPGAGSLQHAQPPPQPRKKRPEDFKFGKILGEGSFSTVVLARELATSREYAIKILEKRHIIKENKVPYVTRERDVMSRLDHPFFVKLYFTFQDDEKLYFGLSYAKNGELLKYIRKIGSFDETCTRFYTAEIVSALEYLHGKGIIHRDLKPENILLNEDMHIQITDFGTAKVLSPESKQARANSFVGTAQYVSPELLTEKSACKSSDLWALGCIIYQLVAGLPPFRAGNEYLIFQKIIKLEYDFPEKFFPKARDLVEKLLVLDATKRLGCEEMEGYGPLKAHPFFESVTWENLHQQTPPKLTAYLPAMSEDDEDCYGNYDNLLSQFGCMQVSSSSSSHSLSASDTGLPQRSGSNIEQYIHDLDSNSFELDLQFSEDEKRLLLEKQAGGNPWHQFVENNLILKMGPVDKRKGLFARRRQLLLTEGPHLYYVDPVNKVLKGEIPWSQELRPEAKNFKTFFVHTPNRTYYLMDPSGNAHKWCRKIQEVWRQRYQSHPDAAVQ
UniProt Q96KB5: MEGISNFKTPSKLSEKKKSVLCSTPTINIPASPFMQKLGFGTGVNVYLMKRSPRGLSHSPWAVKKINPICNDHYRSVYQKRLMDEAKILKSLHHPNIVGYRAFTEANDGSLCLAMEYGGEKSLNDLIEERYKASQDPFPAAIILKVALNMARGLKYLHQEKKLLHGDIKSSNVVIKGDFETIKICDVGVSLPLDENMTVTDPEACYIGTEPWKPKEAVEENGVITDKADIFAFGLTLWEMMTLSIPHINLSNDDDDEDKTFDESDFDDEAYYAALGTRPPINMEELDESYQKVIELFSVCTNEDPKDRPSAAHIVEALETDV
UniProt Q8IWU2: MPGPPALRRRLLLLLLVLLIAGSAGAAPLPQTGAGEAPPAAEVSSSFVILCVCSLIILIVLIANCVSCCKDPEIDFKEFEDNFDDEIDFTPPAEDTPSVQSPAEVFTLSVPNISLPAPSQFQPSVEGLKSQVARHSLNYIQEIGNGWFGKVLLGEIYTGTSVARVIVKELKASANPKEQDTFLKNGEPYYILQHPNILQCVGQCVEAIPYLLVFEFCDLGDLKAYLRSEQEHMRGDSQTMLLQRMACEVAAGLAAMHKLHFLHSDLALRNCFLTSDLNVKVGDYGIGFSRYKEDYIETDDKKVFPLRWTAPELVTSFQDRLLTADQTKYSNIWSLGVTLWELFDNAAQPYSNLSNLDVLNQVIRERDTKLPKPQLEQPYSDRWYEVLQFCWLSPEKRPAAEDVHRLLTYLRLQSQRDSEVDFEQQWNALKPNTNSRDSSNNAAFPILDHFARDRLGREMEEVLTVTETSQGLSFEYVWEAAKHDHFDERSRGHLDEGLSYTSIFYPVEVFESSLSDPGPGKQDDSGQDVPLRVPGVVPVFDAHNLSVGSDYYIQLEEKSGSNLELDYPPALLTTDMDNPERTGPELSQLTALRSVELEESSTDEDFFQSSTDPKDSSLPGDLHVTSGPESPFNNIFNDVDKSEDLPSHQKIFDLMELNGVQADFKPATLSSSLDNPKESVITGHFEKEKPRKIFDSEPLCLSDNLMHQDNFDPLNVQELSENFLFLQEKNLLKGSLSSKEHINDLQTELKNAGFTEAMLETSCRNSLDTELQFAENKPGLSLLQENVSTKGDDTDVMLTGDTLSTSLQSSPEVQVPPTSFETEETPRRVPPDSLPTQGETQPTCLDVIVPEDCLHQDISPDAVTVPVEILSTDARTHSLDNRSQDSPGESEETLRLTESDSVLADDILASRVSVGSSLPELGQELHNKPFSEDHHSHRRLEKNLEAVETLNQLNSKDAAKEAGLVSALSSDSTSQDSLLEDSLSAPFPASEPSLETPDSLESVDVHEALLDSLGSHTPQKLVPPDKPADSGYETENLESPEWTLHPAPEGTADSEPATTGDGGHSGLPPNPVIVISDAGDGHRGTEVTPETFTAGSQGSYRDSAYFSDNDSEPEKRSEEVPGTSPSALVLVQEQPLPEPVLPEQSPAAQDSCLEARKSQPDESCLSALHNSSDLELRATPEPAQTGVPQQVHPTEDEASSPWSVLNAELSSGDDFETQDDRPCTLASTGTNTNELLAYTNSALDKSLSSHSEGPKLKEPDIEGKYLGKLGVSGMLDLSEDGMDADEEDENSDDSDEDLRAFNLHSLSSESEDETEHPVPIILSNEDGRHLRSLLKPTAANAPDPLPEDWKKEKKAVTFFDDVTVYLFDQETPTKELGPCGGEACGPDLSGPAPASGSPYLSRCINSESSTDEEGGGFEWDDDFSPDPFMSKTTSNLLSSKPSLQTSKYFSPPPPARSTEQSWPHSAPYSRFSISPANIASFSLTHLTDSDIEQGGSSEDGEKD
UniProt P53350, whole entry: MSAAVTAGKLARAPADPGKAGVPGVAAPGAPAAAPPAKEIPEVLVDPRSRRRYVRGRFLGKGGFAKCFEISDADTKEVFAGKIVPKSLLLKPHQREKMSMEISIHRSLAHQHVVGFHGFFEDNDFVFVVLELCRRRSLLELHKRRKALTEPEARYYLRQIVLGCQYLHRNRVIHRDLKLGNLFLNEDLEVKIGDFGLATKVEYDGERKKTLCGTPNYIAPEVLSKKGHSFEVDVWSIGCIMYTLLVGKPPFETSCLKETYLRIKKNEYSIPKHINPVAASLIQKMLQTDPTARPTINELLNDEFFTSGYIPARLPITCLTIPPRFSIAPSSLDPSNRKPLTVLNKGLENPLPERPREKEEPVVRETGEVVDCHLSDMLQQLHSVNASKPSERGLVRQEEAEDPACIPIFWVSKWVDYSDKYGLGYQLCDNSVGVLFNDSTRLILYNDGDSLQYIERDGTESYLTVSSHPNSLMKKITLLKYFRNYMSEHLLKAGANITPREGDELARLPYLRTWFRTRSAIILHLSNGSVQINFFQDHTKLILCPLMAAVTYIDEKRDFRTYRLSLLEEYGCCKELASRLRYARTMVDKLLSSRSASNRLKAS
UniProt Q13555: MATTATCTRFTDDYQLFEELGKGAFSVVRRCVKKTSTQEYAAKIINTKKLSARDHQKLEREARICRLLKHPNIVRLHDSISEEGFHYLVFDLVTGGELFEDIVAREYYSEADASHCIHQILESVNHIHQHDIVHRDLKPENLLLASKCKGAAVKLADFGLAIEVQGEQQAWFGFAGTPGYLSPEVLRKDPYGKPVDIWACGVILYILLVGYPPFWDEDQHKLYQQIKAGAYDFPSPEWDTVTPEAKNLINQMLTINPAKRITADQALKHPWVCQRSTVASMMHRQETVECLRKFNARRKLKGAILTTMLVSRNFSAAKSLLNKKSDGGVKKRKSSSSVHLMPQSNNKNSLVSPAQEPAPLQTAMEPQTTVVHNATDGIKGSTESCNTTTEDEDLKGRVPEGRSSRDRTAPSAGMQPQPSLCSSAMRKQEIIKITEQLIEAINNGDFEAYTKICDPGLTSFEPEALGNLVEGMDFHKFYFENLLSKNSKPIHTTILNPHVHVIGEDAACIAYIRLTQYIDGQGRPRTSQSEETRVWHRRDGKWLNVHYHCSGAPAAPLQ
UniProt P43403: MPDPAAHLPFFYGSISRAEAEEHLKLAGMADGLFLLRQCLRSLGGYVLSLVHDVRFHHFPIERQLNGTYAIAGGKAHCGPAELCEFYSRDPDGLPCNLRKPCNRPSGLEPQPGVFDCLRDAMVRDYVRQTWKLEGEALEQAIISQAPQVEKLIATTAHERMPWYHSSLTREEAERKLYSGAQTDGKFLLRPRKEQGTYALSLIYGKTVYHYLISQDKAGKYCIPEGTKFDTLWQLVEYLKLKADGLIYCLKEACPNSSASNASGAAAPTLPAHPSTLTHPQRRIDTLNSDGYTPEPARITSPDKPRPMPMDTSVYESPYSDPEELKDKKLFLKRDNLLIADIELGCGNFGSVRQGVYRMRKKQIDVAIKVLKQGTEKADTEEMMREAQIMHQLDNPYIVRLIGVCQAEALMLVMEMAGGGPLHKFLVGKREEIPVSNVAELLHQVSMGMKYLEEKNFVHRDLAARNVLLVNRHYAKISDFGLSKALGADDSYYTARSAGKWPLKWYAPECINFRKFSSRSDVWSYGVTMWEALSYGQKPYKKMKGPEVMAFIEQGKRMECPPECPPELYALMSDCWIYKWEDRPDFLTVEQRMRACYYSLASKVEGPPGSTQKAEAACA
UniProt Q16620, whole entry, looked up: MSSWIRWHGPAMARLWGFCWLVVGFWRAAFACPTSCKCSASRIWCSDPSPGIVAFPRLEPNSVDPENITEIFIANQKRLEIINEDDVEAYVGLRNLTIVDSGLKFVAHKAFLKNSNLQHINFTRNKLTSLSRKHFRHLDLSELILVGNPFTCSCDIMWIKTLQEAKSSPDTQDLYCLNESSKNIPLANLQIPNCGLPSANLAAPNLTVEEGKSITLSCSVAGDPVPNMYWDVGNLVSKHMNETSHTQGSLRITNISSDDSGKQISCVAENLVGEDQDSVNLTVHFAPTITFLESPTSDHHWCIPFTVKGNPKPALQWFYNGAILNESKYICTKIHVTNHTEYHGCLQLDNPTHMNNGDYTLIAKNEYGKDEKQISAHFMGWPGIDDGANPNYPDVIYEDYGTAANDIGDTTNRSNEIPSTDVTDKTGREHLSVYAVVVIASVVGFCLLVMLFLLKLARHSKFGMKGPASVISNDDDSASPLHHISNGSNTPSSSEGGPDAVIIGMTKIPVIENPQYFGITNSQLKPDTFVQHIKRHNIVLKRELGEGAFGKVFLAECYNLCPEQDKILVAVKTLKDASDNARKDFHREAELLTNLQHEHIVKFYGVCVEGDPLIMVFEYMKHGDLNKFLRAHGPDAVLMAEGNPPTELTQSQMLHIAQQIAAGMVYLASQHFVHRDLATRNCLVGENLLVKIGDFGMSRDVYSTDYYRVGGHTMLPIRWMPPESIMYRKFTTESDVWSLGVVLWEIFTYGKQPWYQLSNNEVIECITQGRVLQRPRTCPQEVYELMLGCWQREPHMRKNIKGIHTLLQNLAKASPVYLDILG

Assays:
Assay in all cases: number of time points (of 5) at which kinase-Nluc abundance scored as decreased, DMSO-normalised (count); higher = more persistent destabilization
[1] = compound: CC(C)N(CCC(=O)c1ccc2ccccc2c1)Cc1ccccc1; conditions: 10 µM; K562; 2-18 h
[2] = compound: CC(C)[C@@](C)(O)[C@@H]1CN(c2nc(-c3[nH]nc4ncccc34)c(F)cc2Cl)CCN1; conditions: 10 µM; K562; 2-18 h
[3] = compound: CC(C)n1nc(-c2cc3cc(O)ccc3[nH]2)c2c(N)ncnc21 [Torkinib]; conditions: 2.5 µM; K562; 2-18 h
[4] = compound: CC1(C)C(=O)N([C@H]2CCc3c(O)cccc32)c2nc(Nc3cccc(CN4CCCC4)c3)ncc21; conditions: 2.5 µM; K562; 2-18 h
[5] = compound: CC1(C)CNc2cc(NC(=O)c3cccnc3NCc3ccncc3)ccc21 [Motesanib (Diphosphate)]; conditions: 2.5 µM; K562; 2-18 h
[6] = compound: CC1(C)CNc2cc(NC(=O)c3cccnc3NCc3ccncc3)ccc21 [Motesanib]; conditions: 2.5 µM; K562; 2-18 h
[7] = compound: CCCCCC1CC1CC1CC1CCCCCCCC(=O)OC; conditions: 10 µM; K562; 2-18 h
[8] = compound: CCCCCCCCCCCCc1ccc(S(=O)(=O)Nc2nncs2)cc1; conditions: 10 µM; K562; 2-18 h
[9] = compound: CCCOc1ccc(C=C2SC(=O)NC2=O)cc1; conditions: 10 µM; K562; 2-18 h
[10] = compound: CCN(CC)CCNC(=O)c1c(C)[nH]c(/C=C2\C(=O)Nc3ccc(F)cc32)c1C [Sunitinib]; conditions: 2.5 µM; K562; 2-18 h
[11] = compound: CCOc1cc2ncc(C#N)c(Nc3ccc(F)c(Cl)c3)c2cc1NC(=O)/C=C/CN(C)C [Pelitinib]; conditions: 2.5 µM; K562; 2-18 h
[12] = compound: CCOc1nc(NC(=O)Cc2cc(OC)ccc2OC)cc(N)c1C#N [JNK Inhibitor VIII]; conditions: 10 µM; K562; 2-18 h
[13] = compound: CC[C@@H]1C(=O)N(C)c2cnc(Nc3ccc(C(=O)NC4CCN(C)CC4)cc3OC)nc2N1C1CCCC1; conditions: 10 µM; K562; 2-18 h
[14] = compound: CCc1cc2c(cc1-c1cnn(CC(=O)N(C)C)c1)C(C)(C)c1[nH]c3cc(C#N)ccc3c1C2=O; conditions: 2.5 µM; K562; 2-18 h
[15] = compound: CCn1c(=O)c(-c2cc(NC(=O)Nc3ccccc3)c(F)cc2Br)cc2cnc(NC)cc21 [Ripretinib]; conditions: 10 µM; K562; 2-18 h
[16] = compound: CN1CCN(c2ccc3nc(-c4c(N)c5c(F)cccc5[nH]c4=O)[nH]c3c2)CC1 [Dovitinib (lactate)]; conditions: 2.5 µM; K562; 2-18 h
[17] = compound: CN1CCN(c2ccc3nc(-c4c(N)c5c(F)cccc5[nH]c4=O)[nH]c3c2)CC1 [Dovitinib]; conditions: 2.5 µM; K562; 2-18 h
[18] = compound: CN1CCN(c2nc(C3=C(c4c[nH]c5ccccc45)C(=O)NC3=O)c3ccccc3n2)CC1 [Sotrastaurin]; conditions: 2.5 µM; K562; 2-18 h
[19] = compound: CNC(=O)c1cc(Oc2ccc(NC(=O)Nc3ccc(Cl)c(C(F)(F)F)c3)cc2)ccn1 [Sorafenib (Tosylate)]; conditions: 10 µM; K562; 2-18 h

Measured: number of time points

RIPK1 (UniProt Q13546)
1: [16]
0: [1] | [2] | [4] | [5] | [6] | [7] | [8] | [9] | [10] | [11] | [12] | [14] | [15] | [17] | [18] | [19]
4: [13]
2: [3]

PAK4 (UniProt O96013)
0: [1] | [2] | [3] | [4] | [5] | [6] | [7] | [8] | [9] | [10] | [11] | [12] | [13] | [14] | [15] | [16] | [17] | [18] | [19]

FGFR2 (UniProt P21802)
3: [2] | [4] | [13]
0: [1] | [3] | [5] | [6] | [7] | [8] | [9] | [10] | [11] | [12] | [15] | [18] | [19]

CSK (UniProt P41240)
0: [1] | [2] | [3] | [4] | [5] | [6] | [7] | [8] | [9] | [10] | [11] | [12] | [13] | [14] | [15] | [16] | [17] | [18] | [19]

YES1 (UniProt P07947)
1: [15]
0: [1] | [2] | [3] | [5] | [6] | [7] | [8] | [9] | [10] | [11] | [12] | [13] | [14] | [16] | [17] | [18] | [19]
2: [4]

PDPK1 (UniProt O15530)
0: [1] | [2] | [4] | [5] | [6] | [7] | [8] | [9] | [10] | [11] | [12] | [13] | [14] | [15] | [16] | [17] | [18] | [19]
2: [3]

PBK (UniProt Q96KB5)
0: [1] | [2] | [3] | [4] | [5] | [6] | [7] | [8] | [9] | [10] | [11] | [12] | [13] | [14] | [15] | [16] | [17] | [18] | [19]

FLT3 (UniProt P36888)
4: [4] | [13]
0: [1] | [2] | [3] | [5] | [6] | [7] | [8] | [9] | [10] | [11] | [12] | [14] | [15] | [18] | [19]

LMTK2 (UniProt Q8IWU2)
0: [1] | [2] | [3] | [5] | [6] | [7] | [8] | [9] | [10] | [11] | [12] | [13] | [14] | [15] | [16] | [17] | [18] | [19]
4: [4]

PLK1 (UniProt P53350)
0: [1] | [2] | [3] | [4] | [5] | [6] | [7] | [8] | [9] | [10] | [11] | [12] | [14] | [15] | [16] | [17] | [18] | [19]

LIMK1 (UniProt P53667)
4: [2]
5: [14]
0: [1] | [3] | [4] | [5] | [6] | [7] | [8] | [9] | [10] | [11] | [12] | [15] | [16] | [17] | [18] | [19]
2: [13]

FGFR3 (UniProt P22607)
2: [4]
0: [1] | [2] | [3] | [5] | [6] | [7] | [8] | [9] | [10] | [11] | [12] | [13] | [14] | [15] | [18] | [19]

CAMK2G (UniProt Q13555)
2: [4]
3: [2]
0: [1] | [3] | [5] | [6] | [7] | [8] | [9] | [10] | [11] | [12] | [13] | [14] | [15] | [16] | [17] | [18] | [19]

ULK3 (UniProt Q6PHR2)
3: [4]
4: [15]
0: [1] | [2] | [3] | [5] | [6] | [7] | [8] | [9] | [10] | [11] | [12] | [13] | [14] | [16] | [17] | [18] | [19]

2 consecutive entries from above, quoted:
LIMK1 (UniProt P53667)
4: [2]
5: [14]
0: [1] | [3] | [4] | [5] | [6] | [7] | [8] | [9] | [10] | [11] | [12] | [15] | [16] | [17] | [18] | [19]
2: [13]

FGFR3 (UniProt P22607)
2: [4]
0: [1] | [2] | [3] | [5] | [6] | [7] | [8] | [9] | [10] | [11] | [12] | [13] | [14] | [15] | [18] | [19]

More records:

ZAP70 (UniProt P43403)
0: [1] | [2] | [3] | [4] | [5] | [6] | [7] | [8] | [9] | [10] | [11] | [12] | [13] | [14] | [15] | [16] | [17] | [18] | [19]

NTRK2 (UniProt Q16620)
4: [15]
1: [13]
0: [1] | [2] | [5] | [6] | [7] | [9] | [10] | [11] | [12] | [14] | [16] | [17] | [18] | [19]
5: [8]
